Common to all, as to conditions: yeast three-hybrid, YBZ-1, SC-Leu-His + 0.5 mM 3-AT, 4 days
Assay [1] has as its target T1, PUM1 PUF domain R2-RKW N899R + Y900K + Q903W (UniProt Q14671).
T1 sequence: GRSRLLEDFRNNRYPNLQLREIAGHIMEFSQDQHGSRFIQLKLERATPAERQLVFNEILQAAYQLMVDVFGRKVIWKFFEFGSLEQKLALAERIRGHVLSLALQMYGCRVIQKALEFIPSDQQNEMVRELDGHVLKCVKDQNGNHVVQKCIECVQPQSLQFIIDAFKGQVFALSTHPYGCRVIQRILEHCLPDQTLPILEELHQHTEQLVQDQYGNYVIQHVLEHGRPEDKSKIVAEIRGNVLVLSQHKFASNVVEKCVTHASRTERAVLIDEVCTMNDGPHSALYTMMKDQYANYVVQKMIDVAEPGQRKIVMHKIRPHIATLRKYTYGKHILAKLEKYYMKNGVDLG

Assay [2] has as its target T2, PUM1 PUF domain R2-RQC N899R + Y900Q + Q903C (UniProt Q14671).
T2 sequence: T1 sequence with K73Q, W76C

For assay [3], the target named is T3, PUM1 PUF domain R2-RRC N899R + Y900R + Q903C (UniProt Q14671).
T3 sequence: T1 sequence with K73R, W76C

The target in assay [4] is T4, PUM1 PUF domain R2-RVN N899R + Y900V + Q903N (UniProt Q14671).
T4 sequence: T1 sequence with K73V, W76N

Assay [5] has as its target T5, PUM1 PUF domain R2-RVT N899R + Y900V + Q903T (UniProt Q14671).
T5 sequence: T1 sequence with K73V, W76T

Assay [6] concerns the target T6, PUM1 PUF domain R2-SWW N899S + Y900W + Q903W (UniProt Q14671).
T6 sequence: T1 sequence with R72S, K73W

The target in assay [7] is T7, PUM1 PUF domain R2-TFG N899T + Y900F + Q903G (UniProt Q14671).
T7 sequence: T1 sequence with R72T, K73F, W76G

Assay [8] has as its target T8, PUM1 PUF domain R2-VFR N899V + Y900F + Q903R (UniProt Q14671).
T8 sequence: T1 sequence with R72V, K73F, W76R

Assay [9] deals with T9, PUM1 PUF domain R2-VFV N899V + Y900F + Q903V (UniProt Q14671).
T9 sequence: T1 sequence with R72V, K73F, W76V

The target in assay [10] is T10, PUM1 PUF domain R2-VHP N899V + Y900H + Q903P (UniProt Q14671).
T10 sequence: T1 sequence with R72V, K73H, W76P

In assay [11] the target is T11, PUM1 PUF domain R2-VWP N899V + Y900W + Q903P (UniProt Q14671).
T11 sequence: T1 sequence with R72V, K73W, W76P

Assay [12] deals with T12, PUM1 PUF domain R2-VWW N899V + Y900W + Q903W (UniProt Q14671).
T12 sequence: T1 sequence with R72V, K73W

The target in assay [13] is T13, PUM1 PUF domain R2-VYP N899V + Q903P (UniProt Q14671).
T13 sequence: T1 sequence with R72V, K73Y, W76P

Assay [14] addresses T14, PUM1 PUF domain R3-RAG C935R + R936A + Q939G (UniProt Q14671).
T14 sequence: T1 sequence with R72N, K73Y, W76Q, C108R, R109A, Q112G

In assay [15] the target is T15, PUM1 PUF domain R3-RRC C935R + Q939C (UniProt Q14671).
T15 sequence: T1 sequence with R72N, K73Y, W76Q, C108R, Q112C

The target in assay [16] is T16, PUM1 PUF domain R3-RRL C935R + Q939L (UniProt Q14671).
T16 sequence: T1 sequence with R72N, K73Y, W76Q, C108R, Q112L

In assay [17] the target is T17, PUM1 PUF domain R3-RRT C935R + Q939T (UniProt Q14671).
T17 sequence: T1 sequence with R72N, K73Y, W76Q, C108R, Q112T

Assay [18] has as its target T18, PUM1 PUF domain R3-RSV C935R + R936S + Q939V (UniProt Q14671).
T18 sequence: T1 sequence with R72N, K73Y, W76Q, C108R, R109S, Q112V

Assay [19] concerns the target T19, PUM1 PUF domain R3-RTS C935R + R936T + Q939S (UniProt Q14671).
T19 sequence: T1 sequence with R72N, K73Y, W76Q, C108R, R109T, Q112S

The target of assay [20] is T20, PUM1 PUF domain R3-SKL C935S + R936K + Q939L (UniProt Q14671).
T20 sequence: T1 sequence with R72N, K73Y, W76Q, C108S, R109K, Q112L

Numbering of substitutions follows the chain as printed. The list shows a part of the results. At the low end of the ranking the order means little.

Regarding “GGCUAGAACUAGUGGAUCCCCCGGCGCCCGGCGGCUCGAGCCCGGGUAAGUGUAAAUAGUCUGCAUGCCGCCGGGCGCCAUGCCUGCAGGUCGACUCUAGAAAACAUG”, the binding signal (log2 enrichment (interaction score)) in assay [1] is less than -7.94; in assay [2] it was less than -6.11; in [3], less than -9.21; in assay [4] it was less than -7.41; in [5], less than -9.04; in assay [6], less than -7.37. For the same sequence, the binding signal (log2 enrichment (interaction score)) in [7] was less than -6.65; in [8], less than -7.53; in [9], less than -6.55; in [10] it was less than -7.86; in assay [11], less than -9.04; in assay [12], less than -6.77. Further, the binding signal (log2 enrichment (interaction score)) in [13] is less than -7.39; in [14] it was -2.26; in [15], -2.34; in assay [16] it was -2.29; in assay [17] it was -2.06; in assay [18] it was -2. Besides, the values for the binding signal (log2 enrichment (interaction score)) in assay [19] and in assay [20] were -2.35 and -2.1, respectively.

The record behind these values is paper PMC8384837.
